Experimental data: PMC9376946, “Peptide-RNA Coacervates as a Cradle for the Evolution of Folded Domains” (Journal of the American Chemical Society, 2022)

What was measured:
[1] = DEER of doubly labeled PA-2/12 (intra-monomer distance, alpha-helical character)
polyU = assay: CW-EPR of PA-12 in the presence of polyU (bound, slow-motion population); assay type: binding
Description: Lyophilized, spin-labeled peptides were dissolved in Milli-Q water and centrifuged at 4000 rpm for 10 min to remove insoluble aggregates. The soluble fractions were used to prepare stock solutions of 250–500 μM peptide. Labeled peptide concentrations were determined by comparing the area under the curve of the EPR signal against that of standard solutions of 10–285 μM TEMPO. For the EPR measurements in D2O, 200 μL of the stock solution was lyophilized and re-dissolved in D2O. The concentration of the unlabeled peptide stock solutions was determined using the bicinchoninic acid assay (Thermo Fisher Scientific) and ranged from 0.8 to 1.2 mM peptide. A stock solution of 500 mM MES, pH 5.6 was used to adjust all samples to a final concentration of 50 mM MES, pH 5.6. Aliquots of 10 mg/mL polyuridylic acid (polyU; Sigma Aldrich) were prepared in Milli-Q water and diluted as necessary. For CW-EPR measurements, a quartz capillary of 0.6 mm i.d. and 0.84 mm o.d. was filled with 7–8 μL of the sample and sealed with Critoseal (Fisherbrand, Fisher Scientific) at one end. A single capillary was placed in an X-band EPR tube of 2 mm i.d. and 2.4 mm o.d. for measurements, except for spin concentration below 50 μM, where two capillaries were used.
Each sample was freshly prepared and the time to collect […] CW-EPR data was 30–40 min.
CW-EPR spectra were recorded on an Elexsys E500 X-Band (9.5 GHz) Bruker spectrometer using a high sensitivity resonator at room temperature. The following parameters were used: 0.1 mT field modulation amplitude, a 15 mT scan range, and 20 mW microwave power. Each scan was 42 s and at least 9 scans were accumulated for each data set. For samples with a high concentration of polyU or a low concentration of labeled peptide, at least 25–36 scans were collected to improve the signal to noise (S/N) ratio. Simulations of the spectra were performed using the “Chili” routine of EasySpin (www.easyspin.org).[21]
After characterizing the dynamic and structural properties of PA in solution, we proceeded to explore these properties upon interaction with the homopolymeric RNA molecule polyU. […] PA-12, like the unlabeled peptide, produced coacervates.[17] […] Using CW-EPR, binding of PA to RNA can be tracked through spin label dynamics. We initially kept the concentration of PA-12 constant at 150 μM and varied the amount of polyU. The CW-EPR spectra in Figure 3B indicate superposition of two populations, I and II. […] The relative intensity of II increases with the amount of polyU added, indicating binding of PA-12 to polyU. The percentage of II increased from 32% at 0.1 mg/mL polyU to 93% at 1 mg/mL polyU. Increasing to 2 mg/mL polyU and reducing the PA-12 concentration to 100 μM increased the population of II to 95% (Figures 3B and S15G). Such restricted motion and dynamic components have also been reported for proteins undergoing phase separation.[38],[39]

[2] = 100 μM PA-2/12 in 3 M guanidinium chloride

Sequence | DEER modulation depth, denatured sample [1, 2] [%] | centre of broad distance distribution (denatured) [1, 2] [nm] | distance distribution, longer maximum ([1]; spin-diluted: 20 μM PA-2/12 in 200 μM total PA, MES pH 5.6, D2O, 20% glycerol-d8, assigned to unfolded α-helix) [nm] | distance distribution, shorter maximum ([1]; spin-diluted: 20 μM PA-2/12 in 200 μM total PA, MES pH 5.6, D2O, 20% glycerol-d8, assigned to α-helix) [nm] | rotational correlation time, component I (polyU; 30 μM PA-12, 1 mg/mL polyU) [ns] | rotational correlation time, component II (polyU; 30 μM PA-12, 1 mg/mL polyU) [ns] | rotational correlation time, component I (polyU; 50 μM PA-12, 1 mg/mL polyU) [ns] | rotational correlation time, component II (polyU; 50 μM PA-12, 1 mg/mL polyU) [ns] | rotational correlation time, component I (polyU; 100 μM PA-12, 1 mg/mL polyU) [ns] | rotational correlation time, component II (polyU; 100 μM PA-12, 1 mg/mL polyU) [ns] | rotational correlation time, component I (polyU; 150 μM PA-12, 1 mg/mL polyU) [ns] | rotational correlation time, component II (polyU; 150 μM PA-12, 1 mg/mL polyU) [ns] | rotational correlation time, component I (polyU; 200 μM PA-12, 1 mg/mL polyU) [ns] | rotational correlation time, component II (polyU; 200 μM PA-12, 1 mg/mL polyU) [ns]
RCRRASVEELTCVPGIGPRLARRILERLA [PA-2/12, PA with spin labels at positions 2 and 12, which span the first α-helix of the HhH motif] | 2.7 | 3.3 | 3.3 | 2.6 | – | – | – | – | – | – | – | – | – | –
RIRRASVEELTCVPGIGPRLARRILERLA [PA-12, Precursor-Arg peptide in which position 12 has been modified with a cysteine and attached to an M-TEMPO spin label] | – | – | – | – | 0.75 ± 0.05 | 9.6 ± 1.4 | 0.69 ± 0.13 | 10.6 ± 1.9 | 0.53 ± 0.07 | 11.6 ± 1.6 | 0.52 ± 0.12 | 11.9 ± 1.4 | 0.52 ± 0.12 | 13.5 ± 2.3
